Measured values from PubChem BioAssay AID330 (DTP/NCI, 2004).
The list is a part of this screen's results and no random one: it is rich in T/C values a quarter to a half above the control, in often repeated tests (any T/C) and in doses without a T/C. Further doses and runs are listed elsewhere. T/C gives the treated animals as a percentage of the vehicle group. Some doses have a count of surviving animals in place of a T/C: the source holds a T/C of zero for them, seemingly a mark for toxic or unscored doses. Some doses without a T/C left all or most animals alive at the check, yet need not have been tolerated: survival well below the control is almost never listed, so the zero probably covers shortened survival too. Survivors were counted at the toxicity check, usually on the fifth day, unless a day is given; later deaths do not show. Schedule codes are those of the source, taken here to give the interval after Q, in days (D) or hours (H), and the number of doses after X. Some entries hold several experiments; the values are given in rising order. For survival time, this PubChem deposit counts one and a half times the control or more as active, and values a quarter to a half above the control carry no call in these data; other NCI protocols may use other cut-offs.

System: P388 leukemia ip, CD2F1 mice, survival T/C
Assay: NCI In Vivo Anticancer Drug Screen. Data for tumor model P388 Leukemia (intraperitoneal) in CD2F1 (CDF1) mice
Settings: T/C endpoint: median survival time, higher T/C = longer survival
[1] = dose: 200.0 mg/kg/injection, schedule: Q01DX005 (ip), vehicle: Klucel (hydroxypropylcellulose) (HPC)
[2] = dose: 12.5 mg/kg/injection, schedule: Q01DX009 (ip), vehicle: saline with Tween-80
[3] = dose: 25.0 mg/kg/injection, schedule: Q01DX009 (ip), vehicle: saline with Tween-80
[4] = dose: 50.0 mg/kg/injection, schedule: Q01DX009 (ip), vehicle: saline with Tween-80

For `O=c1ccc2[n+]([O-])c3ccc(O)cc3oc-2c1`, the survivor count (dose: 200.0 mg/kg/injection, schedule: Q01DX005 (ip), vehicle: saline with Tween-80) was 4 of 5.
In the case of `C/C(=N/NC(N)=O)c1cccc(/C(C)=N/NC(N)=O)n1.[Cl][Zn][Cl]`, the survivor count (dose: 50.0 mg/kg/injection, schedule: Q01DX009 (ip), vehicle: saline) is reported as 2 of 6, the survivor count (dose: 100.0 mg/kg/injection, schedule: Q01DX009 (ip), vehicle: saline) is reported as 1 of 6 and the survivor count (dose: 200.0 mg/kg/injection, schedule: Q01DX009 (ip), vehicle: saline) is reported as 0 of 6.
For `CC(=O)Nc1ccc(S(=O)(=O)c2ccc([N+](=O)[O-])s2)cc1`, the survivor count (dose: 100.0 mg/kg/injection, schedule: Q04DX003 (ip), vehicle: Klucel (hydroxypropylcellulose) (HPC)) was 1 of 6.
For `COCC1OC2OC3C(COC)OC(OC4C(COC)OC(OC5C(COC)OC(OC6C(COC)OC(OC7C(COC)OC(OC8C(COC)OC(OC1C(O)C2O)C(O)C8O)C(O)C7O)C(O)C6O)C(O)C5O)C(O)C4O)C(O)C3O` (stereo unspecified) (tested in a mixture with another compound), the survivor count (dose: 800.0 mg/kg/injection, schedule: Q01DX009 (ip), vehicle: Klucel (hydroxypropylcellulose) (HPC)) was 0 of 6 and 2 of 6, the survivor count (dose: 1600.0 mg/kg/injection, schedule: Q01DX009 (ip), vehicle: Klucel (hydroxypropylcellulose) (HPC)) was 0 of 6 and the survivor count (dose: 3200.0 mg/kg/injection, schedule: Q01DX009 (ip), vehicle: Klucel (hydroxypropylcellulose) (HPC)) was 0 of 6.
In the case of `O=C1NC(=O)C(=Cc2ccc(Cl)cc2)C(=O)N1`, the survivor count [1] is reported as 0 of 6.
In the case of `COc1cc(C)c(/C=C/C(C)=C/c2cc(C)cc(=O)o2)c(C)c1C`, the survivor count (dose: 50.0 mg/kg/injection, schedule: Q01DX005 (ip), vehicle: Klucel (hydroxypropylcellulose) (HPC)) is reported as 6 of 6 and the survivor count [1] is reported as 6 of 6.
For `COc1ccc(CC2C(=O)NC(C)C(=O)N(C)C3Cc4ccc(cc4)Oc4cc(ccc4OC(C)=O)CC(C(=O)NC(C)C(=O)NC(C)C(=O)N2C)N(C)C3=O)cc1` (stereo unspecified), the T/C (dose: 0.25 mg/kg/injection, schedule: Q01DX009 (ip), vehicle: none) was 127 % of control, the T/C (dose: 0.5 mg/kg/injection, schedule: Q01DX009 (ip), vehicle: none) was 142 % of control and the T/C (dose: 1.0 mg/kg/injection, schedule: Q01DX009 (ip), vehicle: none) was 143 % of control.
In the case of `OCC1OC(n2cnc3c(=S)nc[nH]c32)CC1O` (stereo unspecified), the survivor count (dose: 400.0 mg/kg/injection, schedule: Q01DX009 (ip), vehicle: saline with Tween-80) is reported as 3 of 6 and the survivor count (dose: 600.0 mg/kg/injection, schedule: Q01DX009 (ip), vehicle: saline with Tween-80) is reported as 4 of 6.
`S=C1NCC(c2ccccc2)(c2ccccc2)N1` was tested, and the survivor count (dose: 25.0 mg/kg/injection, schedule: Q04DX003 (ip), vehicle: Klucel (hydroxypropylcellulose) (HPC)) was 2 of 6 and the survivor count (dose: 50.0 mg/kg/injection, schedule: Q04DX003 (ip), vehicle: Klucel (hydroxypropylcellulose) (HPC)) was 2 of 6.
In the case of `CC1=CC(C)(C)NC(=S)N1c1cccc(Cl)c1`, the survivor count [2] is reported as 6 of 6, the survivor count [3] is reported as 6 of 6 and the survivor count [4] is reported as 6 of 6.
For `CC1COC2(CC1OC(=O)/C=C/c1ccccc1)OC1CC(C(=O)OC3OC(C)C(O)C(O)C3OC3OC(C)C(O)C(O)C3O)CCC1C21CO1` (stereo unspecified), the T/C (dose: 15.0 mg/kg/injection, schedule: Q01DX005 (ip), vehicle: saline + alcohol) was 134 % of control and the T/C (dose: 30.0 mg/kg/injection, schedule: Q01DX005 (ip), vehicle: saline + alcohol) was 140 and 147 % of control.
With `COCCn1cc(F)c(=O)[nH]c1=O` the T/C (dose: 200.0 mg/kg/injection, schedule: Q04DX002 (ip), vehicle: saline) was 129 % of control.
With `O=C1Nc2ccc([N+](=O)[O-])cc2/C1=C/C(=O)c1ccccc1` the survivor count [3] was 6 of 6.
For `C=C1C[C@]23C[C@@]1(O)CC[C@H]2[C@@]12C=C[C@@H](O1)C(C(=O)OCC)=C2[C@@H]3O`, the survivor count (dose: 30.0 mg/kg/injection, schedule: Q01DX005 (ip), vehicle: Klucel (hydroxypropylcellulose) (HPC)) was 0 of 6, the survivor count (dose: 60.0 mg/kg/injection, schedule: Q01DX005 (ip), vehicle: Klucel (hydroxypropylcellulose) (HPC)) was 0 of 6 and the survivor count (dose: 120.0 mg/kg/injection, schedule: Q01DX005 (ip), vehicle: Klucel (hydroxypropylcellulose) (HPC)) was 2 of 6. For the same molecule, the survivor count (dose: 240.0 mg/kg/injection, schedule: Q01DX005 (ip), vehicle: Klucel (hydroxypropylcellulose) (HPC)) was 0 of 6.
With `COc1ccc(/C=C/C(C)=N/NC(N)=S)cc1` the survivor count (dose: 25.0 mg/kg/injection, schedule: Q01DX005 (ip), vehicle: Klucel + Tween-80) was 0 of 6, the survivor count (dose: 50.0 mg/kg/injection, schedule: Q01DX005 (ip), vehicle: Klucel + Tween-80) was 0 of 6 and the survivor count (dose: 100.0 mg/kg/injection, schedule: Q01DX005 (ip), vehicle: Klucel + Tween-80) was 0 of 6. The survivor count (dose: 200.0 mg/kg/injection, schedule: Q01DX005 (ip), vehicle: Klucel + Tween-80) was 0 of 6.
For `CC1(C=O)CCCC2(C)[C@@H]1CCC13CC(CO)C(CC[C@H]12)C3` (stereo partly specified), the survivor count (dose: 6.5 mg/kg/injection, schedule: Q01DX005 (ip), vehicle: Klucel (hydroxypropylcellulose) (HPC)) was 6 of 6 and the survivor count (dose: 13.0 mg/kg/injection, schedule: Q01DX005 (ip), vehicle: Klucel (hydroxypropylcellulose) (HPC)) was 6 of 6.
`CSc1nccc(=O)n1-c1ccccc1C` was tested, and the survivor count (dose: 400.0 mg/kg/injection, schedule: Q04DX002 (ip), vehicle: Klucel (hydroxypropylcellulose) (HPC)) was 0 of 6.
With `C=C1C2CC[C@H]3C4(C)CCCC(C)(C(=O)O)[C@H]4CCC3(C2)[C@@H]1OC(C)=O` (stereo partly specified) the survivor count (dose: 3.5 mg/kg/injection, schedule: Q01DX005 (ip), vehicle: Klucel (hydroxypropylcellulose) (HPC)) was 6 of 6, the survivor count (dose: 7.0 mg/kg/injection, schedule: Q01DX005 (ip), vehicle: Klucel (hydroxypropylcellulose) (HPC)) was 6 of 6 and the survivor count (dose: 14.0 mg/kg/injection, schedule: Q01DX005 (ip), vehicle: Klucel (hydroxypropylcellulose) (HPC)) was 6 of 6. The survivor count (dose: 28.0 mg/kg/injection, schedule: Q01DX005 (ip), vehicle: Klucel (hydroxypropylcellulose) (HPC)) was 6 of 6.
In the case of `N#CC(c1ccccc1)c1nccc2ccccc12` (stereo unspecified), the survivor count (dose: 400.0 mg/kg/injection, schedule: Q04DX002 (ip), vehicle: saline with Tween-80) is reported as 0 of 6.
With `CCOC(=O)C(C(=O)OCC)=C1c2c(ccc(OC)c2OC)C=C2c3cc4c(cc3CCN21)OCO4` the T/C (dose: 20.0 mg/kg/injection, schedule: Q01DX009 (ip), vehicle: water) was 125 % of control.
For `CCCCCCCCCCCCCCCC[N+](C)(C)CCOS(C)(=O)=O`, the T/C [2] was 125 % of control, the T/C [3] was 131 % of control and the T/C [4] was 125 % of control. For the same molecule, the survivor count [4] was 3 of 6 and 5 of 6, the survivor count (dose: 100.0 mg/kg/injection, schedule: Q01DX009 (ip), vehicle: saline with Tween-80) was 0 of 6 and the survivor count (dose: 200.0 mg/kg/injection, schedule: Q01DX009 (ip), vehicle: saline with Tween-80) was 0 of 6.
In the case of `O=c1oc2c(c(N(c3ccccc3)c3ccccc3)c1Cl)CSc1ccccc1-2`, the survivor count (dose: 200.0 mg/kg/injection, schedule: Q04DX003 (ip), vehicle: saline with Tween-80) is reported as 6 of 6 and the survivor count (dose: 400.0 mg/kg/injection, schedule: Q04DX003 (ip), vehicle: saline with Tween-80) is reported as 6 of 6.
In the case of `Cc1ccc(NC(=O)N(CCCl)N=O)cc1NC(=O)N(CCCl)N=O`, the T/C (dose: 0.2 mg/kg/injection, schedule: Q01DX009 (ip), vehicle: other) is reported as 130 % of control, the T/C (dose: 0.2 mg/kg/injection, schedule: Q01DX009 (ip), vehicle: saline + alcohol) is reported as 132 % of control and the T/C (dose: 0.29 mg/kg/injection, schedule: Q01DX009 (ip), vehicle: other) is reported as 127 % of control. For the same molecule, the T/C (dose: 0.4 mg/kg/injection, schedule: Q01DX009 (ip), vehicle: other) was 140 % of control, the T/C (dose: 0.4 mg/kg/injection, schedule: Q01DX009 (ip), vehicle: saline + alcohol) was 134 % of control and the T/C (dose: 0.44 mg/kg/injection, schedule: Q01DX009 (ip), vehicle: other) was 136 % of control. The T/C (dose: 0.66 mg/kg/injection, schedule: Q01DX009 (ip), vehicle: other) was 131 % of control, the T/C (dose: 0.75 mg/kg/injection, schedule: Q01DX009 (ip), vehicle: saline with Tween-80) was 140 % of control and the T/C (dose: 0.8 mg/kg/injection, schedule: Q01DX009 (ip), vehicle: saline + alcohol) was 144 % of control. For the same molecule, the T/C (dose: 1.5 mg/kg/injection, schedule: Q01DX009 (ip), vehicle: saline with Tween-80) was 147 % of control and the survivor count (dose: 25.0 mg/kg/injection, schedule: Q01DX009 (ip), vehicle: other) was 6 of 6.
